Laboratory results taken from PMC8461307.
Results are given in words; binding and its absence hold for the method and conditions named. Some binding calls cover weakened binding; strength is not graded here.

Amino acid sequences for entries named in this document (tags omitted). A change or cut given only in a name is not applied to a line headed by its entry.
UniProt P01024: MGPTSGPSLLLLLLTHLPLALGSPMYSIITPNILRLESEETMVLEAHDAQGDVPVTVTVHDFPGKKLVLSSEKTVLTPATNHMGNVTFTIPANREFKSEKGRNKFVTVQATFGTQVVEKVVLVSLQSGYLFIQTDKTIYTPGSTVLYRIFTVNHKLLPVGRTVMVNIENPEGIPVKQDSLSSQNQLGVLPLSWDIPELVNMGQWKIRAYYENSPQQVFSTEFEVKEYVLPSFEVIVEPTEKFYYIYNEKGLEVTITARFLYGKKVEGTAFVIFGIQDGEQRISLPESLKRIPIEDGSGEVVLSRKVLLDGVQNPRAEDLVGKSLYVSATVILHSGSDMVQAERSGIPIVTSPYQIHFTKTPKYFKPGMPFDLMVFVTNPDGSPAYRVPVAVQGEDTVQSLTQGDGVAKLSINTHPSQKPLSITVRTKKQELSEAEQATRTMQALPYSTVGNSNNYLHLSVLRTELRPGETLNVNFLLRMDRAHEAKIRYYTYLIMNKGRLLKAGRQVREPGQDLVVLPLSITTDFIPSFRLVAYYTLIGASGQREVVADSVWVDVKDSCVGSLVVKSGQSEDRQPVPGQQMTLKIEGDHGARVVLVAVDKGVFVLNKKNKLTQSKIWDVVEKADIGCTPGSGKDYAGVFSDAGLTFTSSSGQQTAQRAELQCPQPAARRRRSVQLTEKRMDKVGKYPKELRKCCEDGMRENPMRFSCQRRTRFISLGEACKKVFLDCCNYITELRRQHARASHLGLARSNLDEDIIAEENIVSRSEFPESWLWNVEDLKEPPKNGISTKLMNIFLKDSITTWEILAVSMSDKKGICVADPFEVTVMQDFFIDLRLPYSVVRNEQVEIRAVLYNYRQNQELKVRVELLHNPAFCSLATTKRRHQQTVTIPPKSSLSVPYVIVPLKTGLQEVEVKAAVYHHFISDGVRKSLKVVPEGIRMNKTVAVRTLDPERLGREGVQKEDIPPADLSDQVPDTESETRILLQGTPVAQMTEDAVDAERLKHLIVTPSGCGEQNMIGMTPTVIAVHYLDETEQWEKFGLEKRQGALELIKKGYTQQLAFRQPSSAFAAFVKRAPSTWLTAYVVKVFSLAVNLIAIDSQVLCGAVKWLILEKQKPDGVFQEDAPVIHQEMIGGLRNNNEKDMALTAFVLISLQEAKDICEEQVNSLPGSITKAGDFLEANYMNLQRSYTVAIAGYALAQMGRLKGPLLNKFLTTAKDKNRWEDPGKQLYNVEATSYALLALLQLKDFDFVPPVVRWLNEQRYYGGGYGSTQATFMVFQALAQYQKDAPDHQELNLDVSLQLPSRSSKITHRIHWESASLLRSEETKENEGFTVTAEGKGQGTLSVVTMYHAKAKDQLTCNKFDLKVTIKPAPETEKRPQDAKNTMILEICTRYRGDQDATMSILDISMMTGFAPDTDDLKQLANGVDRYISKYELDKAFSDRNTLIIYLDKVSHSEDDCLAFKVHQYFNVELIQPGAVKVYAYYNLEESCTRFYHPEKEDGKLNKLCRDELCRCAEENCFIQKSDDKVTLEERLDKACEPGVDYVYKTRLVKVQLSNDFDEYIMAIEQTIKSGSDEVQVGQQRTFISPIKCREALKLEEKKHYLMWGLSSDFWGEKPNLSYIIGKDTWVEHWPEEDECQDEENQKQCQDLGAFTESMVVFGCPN

Experiments:
purified C3b [1] = target: purified C3b (UniProt P01024); test: ELISA; C3b coated at 5 µg/ml on MaxiSorp wells; serial dilutions of recombinant FHR-5 variants, 1 h at 20°C, DPBS with 0.05% Tween-20; detected with polyclonal goat anti-human FHR-5; both purified
purified C3b [2] = target: purified C3b (UniProt P01024); test: ELISA; C3b coated at 5 µg/ml (overnight, 4°C); patients' serum diluted 1:4 in DPBS with 1% BSA, 0.05% Tween 20, 1 h at 37°C; bound FHR-5 detected with anti-human FHR-5; normalized to a calibrator sample with only FHR-5WT; only the target purified

B1: recombinant wild-type Factor H-related protein 5 (FHR-5WT) (protein, UniProt Q9BXR6 19-569)
chain: EGTLCDFPKIHHGFLYDEEDYNPFSQVPTGEVFYYSCEYNFVSPSKSFWTRITCTEEGWSPTPKCLRMCSFPFVKNGHSESSGLIHLEGDTVQIICNTGYSLQNNEKNISCVERGWSTPPICSFTKGECHVPILEANVDAQPKKESYKVGDVLKFSCRKNLIRVGSDSVQCYQFGWSPNFPTCKGQVRSCGPPPQLSNGEVKEIRKEEYGHNEVVEYDCNPNFIINGPKKIQCVDGEWTTLPTCVEQVKTCGYIPELEYGYVQPSVPPYQHGVSVEVNCRNEYAMIGNNMITCINGIWTELPMCVATHQLKRCKIAGVNIKTLLKLSGKEFNHNSRIRYRCSDIFRYRHSVCINGKWNPEVDCTEKREQFCPPPPQIPNAQNMTTTVNYQDGEKVAVLCKENYLLPEAKEIVCKDGRWQSLPRCVESTAYCGPPPSINNGDTTSFPLSVYPPGSTVTYRCQSFYKLQGSVTVTCRNKQWSEPPRCLDPCVVSEENMNKNNIQLKWRNDGKLYAKTGDAVEFQCKFPHKAMISSPPFRAICQEGKFEYPICE
binding (purified C3b [1]): binds

B2: recombinant FHR-5 G278S (protein, UniProt Q9BXR6 19-569)
chain: EGTLCDFPKIHHGFLYDEEDYNPFSQVPTGEVFYYSCEYNFVSPSKSFWTRITCTEEGWSPTPKCLRMCSFPFVKNGHSESSGLIHLEGDTVQIICNTGYSLQNNEKNISCVERGWSTPPICSFTKGECHVPILEANVDAQPKKESYKVGDVLKFSCRKNLIRVGSDSVQCYQFGWSPNFPTCKGQVRSCGPPPQLSNGEVKEIRKEEYGHNEVVEYDCNPNFIINGPKKIQCVDGEWTTLPTCVEQVKTCGYIPELEYSYVQPSVPPYQHGVSVEVNCRNEYAMIGNNMITCINGIWTELPMCVATHQLKRCKIAGVNIKTLLKLSGKEFNHNSRIRYRCSDIFRYRHSVCINGKWNPEVDCTEKREQFCPPPPQIPNAQNMTTTVNYQDGEKVAVLCKENYLLPEAKEIVCKDGRWQSLPRCVESTAYCGPPPSINNGDTTSFPLSVYPPGSTVTYRCQSFYKLQGSVTVTCRNKQWSEPPRCLDPCVVSEENMNKNNIQLKWRNDGKLYAKTGDAVEFQCKFPHKAMISSPPFRAICQEGKFEYPICE
binding (purified C3b [1]): binds

B3: recombinant FHR-5 R356H (protein, UniProt Q9BXR6 19-569)
chain: EGTLCDFPKIHHGFLYDEEDYNPFSQVPTGEVFYYSCEYNFVSPSKSFWTRITCTEEGWSPTPKCLRMCSFPFVKNGHSESSGLIHLEGDTVQIICNTGYSLQNNEKNISCVERGWSTPPICSFTKGECHVPILEANVDAQPKKESYKVGDVLKFSCRKNLIRVGSDSVQCYQFGWSPNFPTCKGQVRSCGPPPQLSNGEVKEIRKEEYGHNEVVEYDCNPNFIINGPKKIQCVDGEWTTLPTCVEQVKTCGYIPELEYGYVQPSVPPYQHGVSVEVNCRNEYAMIGNNMITCINGIWTELPMCVATHQLKRCKIAGVNIKTLLKLSGKEFNHNSRIHYRCSDIFRYRHSVCINGKWNPEVDCTEKREQFCPPPPQIPNAQNMTTTVNYQDGEKVAVLCKENYLLPEAKEIVCKDGRWQSLPRCVESTAYCGPPPSINNGDTTSFPLSVYPPGSTVTYRCQSFYKLQGSVTVTCRNKQWSEPPRCLDPCVVSEENMNKNNIQLKWRNDGKLYAKTGDAVEFQCKFPHKAMISSPPFRAICQEGKFEYPICE
binding (purified C3b [1]): binds

B4: native FHR-5 in the serum of patients carrying the G278S variant (protein, UniProt Q9BXR6 19-569)
chain: EGTLCDFPKIHHGFLYDEEDYNPFSQVPTGEVFYYSCEYNFVSPSKSFWTRITCTEEGWSPTPKCLRMCSFPFVKNGHSESSGLIHLEGDTVQIICNTGYSLQNNEKNISCVERGWSTPPICSFTKGECHVPILEANVDAQPKKESYKVGDVLKFSCRKNLIRVGSDSVQCYQFGWSPNFPTCKGQVRSCGPPPQLSNGEVKEIRKEEYGHNEVVEYDCNPNFIINGPKKIQCVDGEWTTLPTCVEQVKTCGYIPELEYSYVQPSVPPYQHGVSVEVNCRNEYAMIGNNMITCINGIWTELPMCVATHQLKRCKIAGVNIKTLLKLSGKEFNHNSRIRYRCSDIFRYRHSVCINGKWNPEVDCTEKREQFCPPPPQIPNAQNMTTTVNYQDGEKVAVLCKENYLLPEAKEIVCKDGRWQSLPRCVESTAYCGPPPSINNGDTTSFPLSVYPPGSTVTYRCQSFYKLQGSVTVTCRNKQWSEPPRCLDPCVVSEENMNKNNIQLKWRNDGKLYAKTGDAVEFQCKFPHKAMISSPPFRAICQEGKFEYPICE
binding (purified C3b [2]): binds

B5: native wild-type FHR-5 in patients' serum (protein, UniProt Q9BXR6 19-569)
chain: EGTLCDFPKIHHGFLYDEEDYNPFSQVPTGEVFYYSCEYNFVSPSKSFWTRITCTEEGWSPTPKCLRMCSFPFVKNGHSESSGLIHLEGDTVQIICNTGYSLQNNEKNISCVERGWSTPPICSFTKGECHVPILEANVDAQPKKESYKVGDVLKFSCRKNLIRVGSDSVQCYQFGWSPNFPTCKGQVRSCGPPPQLSNGEVKEIRKEEYGHNEVVEYDCNPNFIINGPKKIQCVDGEWTTLPTCVEQVKTCGYIPELEYGYVQPSVPPYQHGVSVEVNCRNEYAMIGNNMITCINGIWTELPMCVATHQLKRCKIAGVNIKTLLKLSGKEFNHNSRIRYRCSDIFRYRHSVCINGKWNPEVDCTEKREQFCPPPPQIPNAQNMTTTVNYQDGEKVAVLCKENYLLPEAKEIVCKDGRWQSLPRCVESTAYCGPPPSINNGDTTSFPLSVYPPGSTVTYRCQSFYKLQGSVTVTCRNKQWSEPPRCLDPCVVSEENMNKNNIQLKWRNDGKLYAKTGDAVEFQCKFPHKAMISSPPFRAICQEGKFEYPICE
binding (purified C3b [2]): binds
